Source: patent publication US20250257058A1, “COMPOSITIONS AND METHODS FOR INHIBITING CARP-1 BINDING TO NEMO” (The United States Government as represented by the …, priority 2022, published 2025)
For at least one compound, name, drawing or mass did not settle the structure. Some entries share one result that the patent states for a list of compounds.

What was measured:
MDA-MB-468 cells = assay: MTT cytotoxicity assay in MDA-MB-468 cells; format: cell-based; conditions: MDA-MB-468, 5 μM compound + 20 μM cisplatin, 24 h
HCC-1937 cells = assay: MTT cytotoxicity assay in HCC-1937 cells (BRCA-1 mutation); conditions: HCC-1937, 5 μM compound + 20 μM cisplatin, 24 h; percent viable cells

SMILES	Cell viability inhibition in combination with cisplatin compared with SNI-1 (MDA-MB-468 cells)	Viabilities in combination with cisplatin (HCC-1937 cells)
Cc1ccc(-n2nnnc2SCC(=O)c2ccc(F)cc2F)cc1 [GL-270, 1-(2,4-difluorophenyl)-2-((1-(p-tolyl)-1H-tetrazol-5-yl)thio)ethan-1-one]	did not show greater potency	
O=C(CSc1nc(-c2ccccc2)cs1)c1ccc(O)c(O)c1 [GL-216]		40-50%
